Data from PubChem BioAssay AID493014 (National Center for Advancing Translational Sciences (NCATS), 2011).
The list shows a part of the results. The main result of the screen is listed elsewhere. These columns were measured beside it and carry no call. Compounds called inactive in the main read-out are mostly missing here. Words in brackets tell the shape of the fitted curve; partial curves, single points and poor fits give uncertain potencies.

Experiment: qHTS Assay to Find Inhibitors of Chronic Active B-Cell Receptor Signaling
Conditions: ABC-DLBCL IkBa-CBG/CBR reporter, luminescence ratio (green luciferase fused to IkBa over red control in TMD8 lymphoma cells), 4 h
In short: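 TMD8 ABC-DLBCL cells carrying doxycycline-inducible green luciferase fused to IkappaBalpha plus unfused red luciferase were exposed to compounds (up to 46 uM) for 4 hrs at 37C. Activity came from the overlap-corrected green/red luminescence ratio.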

[1] = measured here: CBR red luminescence, cell number
[2] = measured here: IkBa-CBG green luminescence

Row | Compound | AC50 [1] | AC50 [2]
1 | CCCc1nnc(SCC(=O)O)n1CC | 17.8 µM [rising, single point] | 
2 | COc1ccc(/C=C/C(=O)NC2CCS(=O)(=O)C2)cc1 (centres undefined) | 3.26 µM [rising, single point] | 
3 | N#CC(C(=S)Nc1ccccc1)c1nc2ccccc2[nH]1 (centres undefined) |  | 2.24 µM [falling, partial curve, poor fit]
4 | COC(=O)c1cc(C)sc1NC(=O)CN1CCN(C(=O)c2ccco2)CC1 | 0.562 µM [falling, full curve, poor fit] | 
5 | Cc1noc(C)c1/C=N/Nc1ccc2ccccc2n1 | 2.24 µM [falling, full curve] | 
6 | N#C/C(=C\c1cccc([N+](=O)[O-])c1)C(=O)NCC1CCCO1 (centres undefined) | 14.1 µM [falling, partial curve] | 
7 | COc1ccc(CNC(=O)CN(c2ccccc2OC)S(=O)(=O)c2ccc(C)cc2)cc1 | 7.94 µM [falling, partial curve, poor fit] | 
8 | O=C(COc1ccc(Cl)cc1[N+](=O)[O-])N1CCCCCC1 | 31.6 µM [rising, single point] | 
9 | Cc1cccc(-n2ccnc2SCC(=O)Nc2nccs2)c1 | 0.891 µM [rising, full curve, poor fit] | 
10 | COc1ccc(NC(=O)COc2ccc(/C=N/n3c(C)nnc3C)cc2OC)cc1 | 25.9 µM [falling, partial curve, poor fit] | 
11 | CCOc1ccc(NC(=O)c2ccccc2OC)cc1 | 6.31 µM [rising, single point] | 
12 | Cc1cccc(/C(N)=N/OC(=O)c2cccnc2)c1 | 35.5 µM [falling, single point] | 
13 | CCC/C(O)=C1\C(=O)CC(C)(C)CC1=Nc1ccc(OC)cc1 | 14.1 µM [falling, single point] | 
14 | Cn1c(=O)c(C(=O)NNC(=O)c2ccccc2Br)c(O)c2ccccc21 | 0.398 µM [falling, full curve] | 
15 | CC1CCCCN1C(=O)/C=C/c1ccccc1[N+](=O)[O-] (centres undefined) | 35.5 µM [falling, single point] | 
16 | CCn1nnnc1NC(=O)c1cccc(OC)c1 | 22.4 µM [falling, partial curve] | 
17 | O=C(CSc1n[nH]c(=O)n1Cc1ccccc1)Nc1ccc(F)c(F)c1F | 35.5 µM [falling, single point] | 

From compound 11 up to 12, copied from above:
Row | Compound | AC50 [1] | AC50 [2]
11 | CCOc1ccc(NC(=O)c2ccccc2OC)cc1 | 6.31 µM [rising, single point] | 
12 | Cc1cccc(/C(N)=N/OC(=O)c2cccnc2)c1 | 35.5 µM [falling, single point] | 

Going on with the list:

Row | Compound | AC50 [1] | AC50 [2]
18 | COc1ccc(N2CC(C(=O)Nc3c(C(N)=O)oc4ccccc34)CC2=O)cc1 (centres undefined) | 6.51 µM [falling, partial curve] | 
19 | O=[N+]([O-])c1ccc(SCCc2ccccn2)cc1 | 12.6 µM [rising, partial curve, poor fit] | 
20 | Clc1ccc(CO/N=C2\CCCc3nonc32)c(Cl)c1 | 29.1 µM [rising, single point] | 
21 | COc1ccc(C(=O)Cn2c(=N)n(C)c3ccccc32)cc1 | 1.26 µM [rising, partial curve, poor fit] | 
22 | O=[N+]([O-])c1ccc(O)c(P(=O)(c2ccccc2)c2ccccc2)c1 | 35.5 µM [falling, single point] | 
23 | O=C(CSc1nc2ccccc2s1)N/N=C/c1cc([N+](=O)[O-])ccc1O | 3.55 µM [falling, full curve] | 
24 | COc1ccccc1C(=O)NC(=O)COC(=O)c1ccco1 | 29.1 µM [rising, single point] | 
25 | C=CCn1c(-c2ccc3[nH]c(C)c(C)c3c2)n[nH]c1=S | 2.51 µM [rising, full curve, poor fit] | 
26 | COc1ccc(-c2nc(C)ncc2-c2csc(C)n2)c(O)c1 | 3.66 µM [falling, single point] | 
27 | CCOC(=O)c1sc(NC(=O)c2cc3c(s2)CCC(C)C3)nc1C (centres undefined) | 0.103 µM [falling, full curve] | 
28 | Cc1c(C(=O)Nc2ccc(N3CCOCC3)cc2)oc2ccccc12 | 8.91 µM [falling, partial curve, poor fit] | 
29 | COc1ccccc1N=CC1=C(O)CC(c2ccccc2)CC1=O (centres undefined) | 0.326 µM [falling, full curve] | 
30 | Cc1nc(N[C@@H](Cc2ccccc2)C(=O)O)c2oc3ccccc3c2n1 | 3.16 µM [falling, single point] | 
31 | Brc1ccc(CSc2ccc(-c3ccco3)nn2)cc1 | 6.31 µM [rising, partial curve, poor fit] | 
32 | Cc1onc(-c2c(F)cccc2Cl)c1C(=O)Nc1sc2c(c1C#N)CCC(C(C)(C)C)C2 (centres undefined) | 2.31 µM [falling, full curve] | 20.6 µM [rising, partial curve, poor fit]
33 | O=c1[nH]c(/C=C/c2ccc(OC(F)F)cc2)nc2c1cnn2-c1ccccc1 | 2.82 µM [rising, full curve, poor fit] | 
